Measured values: paper PMC4996973, “Topology and structure of an engineered human cohesin complex bound to Pds5B” (Nature Communications, 2016)

Biological target: bonsai dimers (Smc1^B-10HIS, Smc3^B-FLAG) (human)
Assay: pull-down; comparison of Pds5B binding to FLAG-immobilised bonsai dimers, trimers and tetramers (Supplementary Fig. 5); the Pds5B sample contained a very substoichiometric amount of Wapl; both purified

B1: Pds5B^10HIS (protein, UniProt Q9NTI5 1-1447)
chain: MAHSKTRTNDGKITYPPGVKEISDKISKEEMVRRLKMVVKTFMDMDQDSEEEKELYLNLALHLASDFFLKHPDKDVRLLVACCLADIFRIYAPEAPYTSPDKLKDIFMFITRQLKGLEDTKSPQFNRYFYLLENIAWVKSYNICFELEDSNEIFTQLYRTLFSVINNGHNQKVHMHMVDLMSSIICEGDTVSQELLDTVLVNLVPAHKNLNKQAYDLAKALLKRTAQAIEPYITNFFNQVLMLGKTSISDLSEHVFDLILELYNIDSHLLLSVLPQLEFKLKSNDNEERLQVVKLLAKMFGAKDSELASQNKPLWQCYLGRFNDIHVPIRLECVKFASHCLMNHPDLAKDLTEYLKVRSHDPEEAIRHDVIVSIVTAAKKDILLVNDHLLNFVRERTLDKRWRVRKEAMMGLAQIYKKYALQSAAGKDAAKQIAWIKDKLLHIYYQNSIDDRLLVERIFAQYMVPHNLETTERMKCLYYLYATLDLNAVKALNEMWKCQNLLRHQVKDLLDLIKQPKTDASVKAIFSKVMVITRNLPDPGKAQDFMKKFTQVLEDDEKIRKQLEVLVSPTCSCKQAEGCVREITKKLGNPKQPTNPFLEMIKFLLERIAPVHIDTESISALIKQVNKSIDGTADDEDEGVPTDQAIRAGLELLKVLSFTHPISFHSAETFESLLACLKMDDEKVAEAALQIFKNTGSKIEEDFPHIRSALLPVLHHKSKKGPPRQAKYAIHCIHAIFSSKETQFAQIFEPLHKSLDPSNLEHLITPLVTIGHIALLAPDQFAAPLKSLVATFIVKDLLMNDRLPGKKTTKLWVPDEEVSPETMVKIQAIKMMVRWLLGMKNNHSKSGTSTLRLLTTILHSDGDLTEQGKISKPDMSRLRLAAGSAIVKLAQEPCYHEIITLEQYQLCALAINDECYQVRQVFAQKLHKGLSRLRLPLEYMAICALCAKDPVKERRAHARQCLVKNINVRREYLKQHAAVSEKLLSLLPEYVVPYTIHLLAHDPDYVKVQDIEQLKDVKECLWFVLEILMAKNENNSHAFIRKMVENIKQTKDAQGPDDAKMNEKLYTVCDVAMNIIMSKSTTYSLESPKDPVLPARFFTQPDKNFSNTKNYLPPEMKSFFTPGKPKTTNVLGAVNKPLSSAGKQSQTKSSRMETVSNASSSSNPSSPGRIKGRLDSSEMDHSENEDYTMSSPLPGKKSDKRDDSDLVRSELEKPRGRKKTPVTEQEEKLGMDDLTKLVQEQKPKGSQRSRKRGHTASESDEQQWPEEKRLKEDILENEDEQNSPPKKGKRGRPPKPLGGGTPKEEPTMKTSKKGSKKKSGPPAPEEEEEEERQSGNTEQKSKSKQHRVSRRAQQRAESPESSAIESTQSTPQKGRGRPSKTPSPSQPKKNVRVGRSKQAATKENDSSEEVDVFQGSSPVDDIPQEETEEEEVSTVNVRRRSAKRERR
binding: no binding

These are yes or no findings as the source states them, for the method shown. Tags and fused reporters may be left off the sequences shown.
